Results are given in words; binding and its absence hold for the method and conditions named. In cells and extracts the contact can be indirect. A result given as binding can be weak or reduced; the word gives no strength.
What was measured:
[1] = target: His6-FpvI (P. aeruginosa PAO1) (UniProt Q9I193); test: pull-down; nickel-affinity chromatography of soluble protein from E. coli MC1061 (DE3) co-expressing His6-sigma factor and FpvR(1-89) from pETDuet; 50 mM sodium phosphate pH 8.0, 300 mM NaCl, wash 30 mM imidazole, elution 250 mM imidazole; SDS-PAGE and Western blot
[2] = target: His6-PvdS (P. aeruginosa PAO1) (UniProt G3XCV1); test: as above

By UniProt entry, the sequences of proteins in these tests, tags left out. Where a name states a change or a piece, a line headed by the entry shows the natural chain unless it says otherwise.
UniProt Q9I193: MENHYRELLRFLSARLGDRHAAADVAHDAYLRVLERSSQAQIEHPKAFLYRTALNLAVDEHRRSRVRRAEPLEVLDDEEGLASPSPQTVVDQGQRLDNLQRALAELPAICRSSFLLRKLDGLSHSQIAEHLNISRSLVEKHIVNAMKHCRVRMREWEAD
UniProt G3XCV1: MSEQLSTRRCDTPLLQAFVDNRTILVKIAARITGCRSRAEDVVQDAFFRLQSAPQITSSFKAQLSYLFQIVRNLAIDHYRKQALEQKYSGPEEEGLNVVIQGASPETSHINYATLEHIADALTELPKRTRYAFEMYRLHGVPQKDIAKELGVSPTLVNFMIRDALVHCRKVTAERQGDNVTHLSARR

- binding [1]: binds
- binding [2]: binds
Substance: FpvR_(1–89) (cytoplasmic region of FpvR) (from UniProt Q9I192) (domain or fragment)

Source: PMC4256889
